{"source": "the supplement of paper PMC10338343", "note": "± gives the standard deviation. Only a part is listed here, and it is no random draw. Many entries were measured with a wide error.", "data": [{"tested_on": "EfPiwi piRISC loaded with piRNA #1 (26 nt)", "assay": "pre-steady-state target cleavage rate (min^-1); guide: piRNA #1 5'p-UGAGGUAGUAGGUUGUAUAGUAUCCA; MIWI and MILI are mouse PIWI proteins and EfPiwi is from a freshwater sponge; tags in brackets are library labels; higher = faster piRNA-guided slicing of the target", "details": "auxiliary factor: 500 nM Ephydatia muelleri Gtsf1", "outline": "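In Cleave-'n-Seq, a transcribed, DNA-blocked target RNA library (0.1 nM) was combined with 1 nM active affinity-purified piRISC bearing one synthetic guide, with or without 500 nM GTSF1 partner protein. Reactions ran in HEPES–potassium acetate buffer at 33 °C for 0–8 or 0–960 min. Uncleaved targets were sequenced and normalised to depth and to weakly complementary targets, three trials were pooled, and k3 was capped at 0.0001 min^-1. The pre-steady-state cleavage rate was obtained by fitting a burst-and-steady-state model.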", "values": [{"sequence": "GGAGACCUAACAAUACAAGCUACUACCUCA", "pre-steady-state target cleavage rate": "0.0028 ± 0.0046"}, {"sequence": "GGAGUGCAAACUAUACAACCUACUACCUCA", "pre-steady-state target cleavage rate": "0.00676 ± 0.0044"}, {"sequence": "GGAGAGGAUACUAUUCAAGCUACUACCUCA", "pre-steady-state target cleavage rate": "0.00323 ± 0.002"}, {"sequence": "GGAGACCUAUGAUAUGUUGGUUCUACCUCA", "pre-steady-state target cleavage rate": "0.000145 ± 0.014"}, {"sequence": "GGAGACCUAUGUAUACAACCUACUACGUGA", "pre-steady-state target cleavage rate": "0.000475 ± 0.01"}, {"sequence": "GGAGAGGAUACAUACAACCUACUACCUCA", "pre-steady-state target cleavage rate": "0.0103 ± 0.005"}, {"sequence": "GGAGACCUUACUAUACAACCGACUACCUCA", "pre-steady-state target cleavage rate": "0.00553 ± 0.0036"}, {"sequence": "GGAGUGGAUACUAUACAAGCUAGUACCUCA", "pre-steady-state target cleavage rate": "0.00287 ± 0.0014"}, {"sequence": "GGAGACCUUACUAUACAACCUACUACGAGA", "pre-steady-state target cleavage rate": "0.00452 ± 0.0025"}, {"sequence": "GGAGAGGAUACUAUCCAACCUACUACCUCA", "pre-steady-state target cleavage rate": "0.00889 ± 0.004"}, {"sequence": "GGAGACCUUACUAUAGAACCUACUACCUGA", "pre-steady-state target cleavage rate": "0.000888 ± 0.0038"}, {"sequence": "GGAGACCUAACUAAUCAACCUACUACCUCA", "pre-steady-state target cleavage rate": "0.00211 ± 0.0042"}, {"sequence": "GGAGACCUUACUAUACAACCUACUACCUACA", "pre-steady-state target cleavage rate": "0.00473 ± 0.0031"}, {"sequence": "GGAGAGGAUACAAUACAACCUACUACGUCA", "pre-steady-state target cleavage rate": "0.00333 ± 0.0019"}, {"sequence": "GGAGACGUUAGUAUACAACCUACUACCUCA", "pre-steady-state target cleavage rate": "0.00686 ± 0.0036"}, {"sequence": "GGAGAGGUUACUAUAGAACCUACUACCUCA", "pre-steady-state target cleavage rate": "0.00277 ± 0.0023"}, {"sequence": "GGAGACCUAUCUAUACAACCUACAACCACA", "pre-steady-state target cleavage rate": "0.00118 ± 0.0066"}, {"sequence": "GGAGACCUAUCUAUACAACCUAUUACCUCA", "pre-steady-state target cleavage rate": "0.00466 ± 0.0039"}, {"sequence": "GGAGACCUAUGAUAUGUUGGUACUUCCUCA", "pre-steady-state target cleavage rate": "0.000464 ± 0.0076"}, {"sequence": "GGAGACCUAUGUAUACAAGCUACUACCUCA", "pre-steady-state target cleavage rate": "0.00216 ± 0.0044"}, {"sequence": "GGAGAGGAUACUAUACAACCUACUACCUA", "pre-steady-state target cleavage rate": "0.217 ± 0.081"}, {"sequence": "GGAGACGAUUCUAUACAACGUACUACCUCA", "pre-steady-state target cleavage rate": "0.00356 ± 0.0021"}, {"sequence": "GGAGAGGAUACUAUAGCAACCUACUACCUCA", "pre-steady-state target cleavage rate": "0.0429 ± 0.019"}, {"sequence": "GGAGACGAUACUAUACAAGCUACUAGCUCA", "pre-steady-state target cleavage rate": "0.00375 ± 0.0019"}, {"sequence": "GGAGACCUAAGAAUACAACCUACUACCUCA", "pre-steady-state target cleavage rate": "0.00727 ± 0.0035"}, {"sequence": "GGAGACCUUACUAUACAACCUACAUCCUCA", "pre-steady-state target cleavage rate": "0.00277 ± 0.0036"}, {"sequence": "GGAGACCAUACUAUAGAAGCUACUACCUCA", "pre-steady-state target cleavage rate": "0.00159 ± 0.0058"}, {"sequence": "GGAGACCAUACUUUACAACGUACUACCUCA", "pre-steady-state target cleavage rate": "0.00315 ± 0.0034"}, {"sequence": "GGAGAGGAUAGUAUACAACCUAGUACCUCA", "pre-steady-state target cleavage rate": "0.00231 ± 0.002"}, {"sequence": "GGAGAGGAUACUAUACAACCUACAUACCUCA", "pre-steady-state target cleavage rate": "0.00353 ± 0.0021"}, {"sequence": "GGAGACCAUACUAUACAACCUACAAGCUCA", "pre-steady-state target cleavage rate": "0.00268 ± 0.0039"}, {"sequence": "GGAGACCUUACUAUACAACCUACUACUCA", "pre-steady-state target cleavage rate": "0.0025 ± 0.003"}, {"sequence": "GGAGACCUAACUAUAGAACCUACUACCACA", "pre-steady-state target cleavage rate": "0.000659 ± 0.015"}, {"sequence": "GGAGUGGAUAGUAUACAACCUACUACCACA", "pre-steady-state target cleavage rate": "0.00327 ± 0.0018"}, {"sequence": "GGAGACCUAUGUAUACAACCUACUACCCUCA", "pre-steady-state target cleavage rate": "0.000886 ± 0.0057"}, {"sequence": "GGAGACCUAUGUAUACAACCUACAACGUCA", "pre-steady-state target cleavage rate": "0.000497 ± 0.01"}, {"sequence": "GGAGUGGAUACUAUACAACCUACUACCAUCA", "pre-steady-state target cleavage rate": "0.00588 ± 0.0026"}, {"sequence": "GGAGACCUAUCUAUACAUCCUACUACCACA", "pre-steady-state target cleavage rate": "0.00248 ± 0.0037"}, {"sequence": "GGAGACCAUUCUAUACAACCUACUACCUGA", "pre-steady-state target cleavage rate": "0.00652 ± 0.0034"}, {"sequence": "GGAGAGGAUACUUUACAACCAACUACCUCA", "pre-steady-state target cleavage rate": "0.00291 ± 0.0016"}]}]}
